The source of these data is the supplement of paper PMC12595434, “Development of retinoid nuclear receptor pathway antagonists through targeting aldehyde dehydrogenase 1A3” (iScience, 2025).

Protein sequences, listed by entry. Tags and fused reporters are not part of them. Lines headed by an entry give the natural chain unless they say otherwise; changes in a name come on top.
UniProt Q8NCE0: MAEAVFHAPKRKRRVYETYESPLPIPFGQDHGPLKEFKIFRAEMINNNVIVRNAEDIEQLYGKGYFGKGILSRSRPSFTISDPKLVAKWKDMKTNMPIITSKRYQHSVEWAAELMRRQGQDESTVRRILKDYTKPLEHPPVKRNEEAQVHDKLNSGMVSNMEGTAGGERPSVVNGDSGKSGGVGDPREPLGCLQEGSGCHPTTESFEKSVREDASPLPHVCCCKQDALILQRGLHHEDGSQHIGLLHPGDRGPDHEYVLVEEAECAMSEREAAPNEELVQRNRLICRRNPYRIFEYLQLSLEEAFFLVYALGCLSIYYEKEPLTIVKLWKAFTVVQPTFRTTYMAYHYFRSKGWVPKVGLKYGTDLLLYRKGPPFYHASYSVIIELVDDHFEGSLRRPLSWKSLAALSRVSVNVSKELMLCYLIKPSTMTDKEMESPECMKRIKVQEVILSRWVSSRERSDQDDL
UniProt Q8TE02: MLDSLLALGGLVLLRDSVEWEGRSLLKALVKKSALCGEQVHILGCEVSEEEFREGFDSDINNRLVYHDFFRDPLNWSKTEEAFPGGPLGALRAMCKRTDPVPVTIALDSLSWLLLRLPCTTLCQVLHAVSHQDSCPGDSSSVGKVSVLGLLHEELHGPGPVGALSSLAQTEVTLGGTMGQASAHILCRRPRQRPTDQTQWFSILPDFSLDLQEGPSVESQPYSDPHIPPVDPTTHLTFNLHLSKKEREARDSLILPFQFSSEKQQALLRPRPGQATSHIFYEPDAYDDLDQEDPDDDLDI
UniProt Q8WV22: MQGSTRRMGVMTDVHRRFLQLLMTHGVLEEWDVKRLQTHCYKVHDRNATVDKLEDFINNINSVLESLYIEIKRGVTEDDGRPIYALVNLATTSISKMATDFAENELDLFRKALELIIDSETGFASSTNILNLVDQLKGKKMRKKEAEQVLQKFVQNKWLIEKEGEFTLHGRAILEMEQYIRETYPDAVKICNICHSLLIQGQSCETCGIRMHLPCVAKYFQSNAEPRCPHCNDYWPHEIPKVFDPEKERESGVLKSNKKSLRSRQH
UniProt Q8TBE9: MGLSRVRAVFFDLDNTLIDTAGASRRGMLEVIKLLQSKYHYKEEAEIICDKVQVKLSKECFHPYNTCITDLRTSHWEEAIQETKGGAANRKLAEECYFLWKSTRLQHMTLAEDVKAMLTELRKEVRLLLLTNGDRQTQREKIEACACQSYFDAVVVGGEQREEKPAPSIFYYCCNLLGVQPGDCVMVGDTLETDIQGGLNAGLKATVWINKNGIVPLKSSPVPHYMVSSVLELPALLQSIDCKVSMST
UniProt Q8NBN7: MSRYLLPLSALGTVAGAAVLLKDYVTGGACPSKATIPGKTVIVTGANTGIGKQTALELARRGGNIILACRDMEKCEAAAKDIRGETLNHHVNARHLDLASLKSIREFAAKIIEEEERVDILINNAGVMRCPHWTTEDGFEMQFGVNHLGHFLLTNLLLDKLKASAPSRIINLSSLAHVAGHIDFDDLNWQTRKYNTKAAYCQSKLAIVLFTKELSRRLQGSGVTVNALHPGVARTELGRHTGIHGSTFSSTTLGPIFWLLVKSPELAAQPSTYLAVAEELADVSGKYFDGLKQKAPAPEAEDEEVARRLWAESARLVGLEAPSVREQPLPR
UniProt Q8NI22: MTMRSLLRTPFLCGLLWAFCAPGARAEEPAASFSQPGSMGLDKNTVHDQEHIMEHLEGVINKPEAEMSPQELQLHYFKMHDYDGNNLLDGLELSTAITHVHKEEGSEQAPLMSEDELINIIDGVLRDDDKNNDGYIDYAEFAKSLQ
UniProt Q8TCU6, whole entry: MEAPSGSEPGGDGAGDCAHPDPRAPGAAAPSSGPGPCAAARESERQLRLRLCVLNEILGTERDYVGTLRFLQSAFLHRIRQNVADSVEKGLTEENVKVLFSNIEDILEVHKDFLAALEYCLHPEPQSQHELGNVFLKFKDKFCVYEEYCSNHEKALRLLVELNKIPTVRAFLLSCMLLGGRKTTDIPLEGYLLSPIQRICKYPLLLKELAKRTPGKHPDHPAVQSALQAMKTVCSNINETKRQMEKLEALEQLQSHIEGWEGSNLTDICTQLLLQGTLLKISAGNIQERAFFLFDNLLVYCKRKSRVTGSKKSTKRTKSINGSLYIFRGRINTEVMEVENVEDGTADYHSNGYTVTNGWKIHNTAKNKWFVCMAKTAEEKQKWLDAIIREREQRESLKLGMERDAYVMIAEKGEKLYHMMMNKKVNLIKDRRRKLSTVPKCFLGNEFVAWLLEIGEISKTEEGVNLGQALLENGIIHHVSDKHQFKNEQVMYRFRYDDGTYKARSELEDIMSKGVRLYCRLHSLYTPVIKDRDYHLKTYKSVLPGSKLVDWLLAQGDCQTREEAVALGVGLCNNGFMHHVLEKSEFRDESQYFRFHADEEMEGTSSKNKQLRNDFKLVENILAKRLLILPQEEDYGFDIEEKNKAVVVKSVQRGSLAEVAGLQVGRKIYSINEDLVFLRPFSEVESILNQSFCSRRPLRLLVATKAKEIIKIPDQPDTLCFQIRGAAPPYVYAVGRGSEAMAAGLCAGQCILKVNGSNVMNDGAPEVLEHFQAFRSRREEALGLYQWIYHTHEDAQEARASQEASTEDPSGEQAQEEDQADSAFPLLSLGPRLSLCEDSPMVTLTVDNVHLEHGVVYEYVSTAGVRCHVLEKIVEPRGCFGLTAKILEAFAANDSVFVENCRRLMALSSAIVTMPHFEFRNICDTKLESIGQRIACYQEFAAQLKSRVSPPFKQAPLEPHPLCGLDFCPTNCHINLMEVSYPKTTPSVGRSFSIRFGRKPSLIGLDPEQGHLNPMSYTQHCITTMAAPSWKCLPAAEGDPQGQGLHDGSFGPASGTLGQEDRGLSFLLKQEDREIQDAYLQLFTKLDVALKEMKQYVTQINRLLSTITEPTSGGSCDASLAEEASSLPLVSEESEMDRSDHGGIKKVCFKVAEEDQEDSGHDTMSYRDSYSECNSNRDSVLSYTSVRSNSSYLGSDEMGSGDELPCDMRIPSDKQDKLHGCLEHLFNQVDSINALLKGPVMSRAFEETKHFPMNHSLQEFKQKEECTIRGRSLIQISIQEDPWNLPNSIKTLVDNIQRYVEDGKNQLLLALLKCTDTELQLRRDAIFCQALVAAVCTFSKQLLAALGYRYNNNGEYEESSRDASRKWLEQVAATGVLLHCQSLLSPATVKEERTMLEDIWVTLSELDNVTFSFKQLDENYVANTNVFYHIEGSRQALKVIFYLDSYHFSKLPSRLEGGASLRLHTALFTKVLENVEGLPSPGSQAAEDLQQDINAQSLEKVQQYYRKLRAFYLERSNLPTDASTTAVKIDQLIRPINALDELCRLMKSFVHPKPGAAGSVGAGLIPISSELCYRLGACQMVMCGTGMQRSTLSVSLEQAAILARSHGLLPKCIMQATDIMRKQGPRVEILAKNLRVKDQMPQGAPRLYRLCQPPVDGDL
UniProt Q8NB16: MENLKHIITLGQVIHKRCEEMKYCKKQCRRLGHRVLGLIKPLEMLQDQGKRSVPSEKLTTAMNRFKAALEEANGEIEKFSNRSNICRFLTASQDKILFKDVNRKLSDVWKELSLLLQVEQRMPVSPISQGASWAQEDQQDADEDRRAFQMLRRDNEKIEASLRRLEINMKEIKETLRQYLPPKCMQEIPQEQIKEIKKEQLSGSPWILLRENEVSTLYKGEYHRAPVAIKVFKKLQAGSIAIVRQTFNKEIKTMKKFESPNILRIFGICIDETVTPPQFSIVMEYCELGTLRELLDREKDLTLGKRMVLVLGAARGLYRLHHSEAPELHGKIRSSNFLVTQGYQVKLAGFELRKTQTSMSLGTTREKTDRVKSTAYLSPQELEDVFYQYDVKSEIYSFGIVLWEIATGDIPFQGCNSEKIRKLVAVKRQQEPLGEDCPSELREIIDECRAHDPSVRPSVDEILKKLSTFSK
UniProt Q8NEB9, whole entry: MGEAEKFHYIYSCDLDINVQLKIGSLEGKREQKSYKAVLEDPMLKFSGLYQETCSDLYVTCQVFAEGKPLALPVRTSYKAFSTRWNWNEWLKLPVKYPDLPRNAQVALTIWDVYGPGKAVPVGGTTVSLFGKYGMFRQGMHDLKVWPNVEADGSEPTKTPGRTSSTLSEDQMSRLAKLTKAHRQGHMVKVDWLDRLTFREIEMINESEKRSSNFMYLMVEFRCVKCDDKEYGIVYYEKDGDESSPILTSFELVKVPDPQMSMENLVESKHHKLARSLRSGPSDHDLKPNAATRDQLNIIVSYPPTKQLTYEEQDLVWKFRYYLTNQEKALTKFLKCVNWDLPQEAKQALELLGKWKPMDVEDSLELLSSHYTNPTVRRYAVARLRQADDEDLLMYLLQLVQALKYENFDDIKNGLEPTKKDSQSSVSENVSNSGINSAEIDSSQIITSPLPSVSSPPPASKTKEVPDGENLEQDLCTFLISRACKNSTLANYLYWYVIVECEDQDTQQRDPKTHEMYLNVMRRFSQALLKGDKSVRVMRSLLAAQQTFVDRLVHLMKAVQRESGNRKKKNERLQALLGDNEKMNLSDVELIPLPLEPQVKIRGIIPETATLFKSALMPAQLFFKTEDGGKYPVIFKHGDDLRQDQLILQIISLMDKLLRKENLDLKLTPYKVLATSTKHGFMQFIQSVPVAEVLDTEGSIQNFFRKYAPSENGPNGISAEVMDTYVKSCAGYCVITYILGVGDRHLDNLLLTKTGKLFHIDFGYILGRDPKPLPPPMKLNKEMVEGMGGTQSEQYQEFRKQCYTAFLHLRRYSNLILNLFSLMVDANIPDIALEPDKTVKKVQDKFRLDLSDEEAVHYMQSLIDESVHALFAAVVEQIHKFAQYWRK
UniProt Q8TCX1: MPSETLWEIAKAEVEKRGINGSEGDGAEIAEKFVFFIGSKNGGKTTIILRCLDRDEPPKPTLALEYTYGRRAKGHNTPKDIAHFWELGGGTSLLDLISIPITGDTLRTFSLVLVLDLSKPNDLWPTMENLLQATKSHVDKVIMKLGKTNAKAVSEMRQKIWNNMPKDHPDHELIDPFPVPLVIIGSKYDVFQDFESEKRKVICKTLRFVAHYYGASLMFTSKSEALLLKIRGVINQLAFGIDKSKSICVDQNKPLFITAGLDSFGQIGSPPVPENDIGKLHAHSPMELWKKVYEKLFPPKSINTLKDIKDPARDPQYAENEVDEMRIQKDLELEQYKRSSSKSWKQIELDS
UniProt Q8NB37: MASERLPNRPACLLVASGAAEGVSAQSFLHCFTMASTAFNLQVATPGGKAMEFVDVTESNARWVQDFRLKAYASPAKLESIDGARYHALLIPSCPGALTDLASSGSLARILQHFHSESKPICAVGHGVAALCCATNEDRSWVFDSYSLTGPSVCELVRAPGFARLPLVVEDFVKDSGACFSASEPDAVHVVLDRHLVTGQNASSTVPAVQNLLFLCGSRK
UniProt Q8TCS8: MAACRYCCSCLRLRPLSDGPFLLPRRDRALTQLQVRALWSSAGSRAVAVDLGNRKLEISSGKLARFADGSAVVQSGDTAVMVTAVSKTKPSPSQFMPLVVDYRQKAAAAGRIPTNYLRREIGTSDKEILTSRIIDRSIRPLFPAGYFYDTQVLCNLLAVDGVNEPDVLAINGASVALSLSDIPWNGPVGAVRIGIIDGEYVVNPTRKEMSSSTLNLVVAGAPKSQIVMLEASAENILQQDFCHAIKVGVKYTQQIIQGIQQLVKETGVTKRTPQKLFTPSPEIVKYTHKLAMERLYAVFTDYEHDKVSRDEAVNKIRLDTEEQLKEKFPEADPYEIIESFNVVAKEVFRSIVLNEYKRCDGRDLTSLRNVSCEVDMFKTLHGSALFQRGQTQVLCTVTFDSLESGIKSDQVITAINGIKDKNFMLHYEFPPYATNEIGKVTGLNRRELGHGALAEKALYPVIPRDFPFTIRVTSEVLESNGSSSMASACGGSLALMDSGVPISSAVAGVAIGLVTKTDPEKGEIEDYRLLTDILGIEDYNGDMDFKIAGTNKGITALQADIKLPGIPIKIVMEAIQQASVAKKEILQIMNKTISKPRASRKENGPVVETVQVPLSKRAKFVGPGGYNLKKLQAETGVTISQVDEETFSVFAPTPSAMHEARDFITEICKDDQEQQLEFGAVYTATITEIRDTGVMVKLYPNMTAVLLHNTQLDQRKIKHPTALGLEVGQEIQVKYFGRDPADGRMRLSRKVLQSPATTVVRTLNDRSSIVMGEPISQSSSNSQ
UniProt Q8NBU5: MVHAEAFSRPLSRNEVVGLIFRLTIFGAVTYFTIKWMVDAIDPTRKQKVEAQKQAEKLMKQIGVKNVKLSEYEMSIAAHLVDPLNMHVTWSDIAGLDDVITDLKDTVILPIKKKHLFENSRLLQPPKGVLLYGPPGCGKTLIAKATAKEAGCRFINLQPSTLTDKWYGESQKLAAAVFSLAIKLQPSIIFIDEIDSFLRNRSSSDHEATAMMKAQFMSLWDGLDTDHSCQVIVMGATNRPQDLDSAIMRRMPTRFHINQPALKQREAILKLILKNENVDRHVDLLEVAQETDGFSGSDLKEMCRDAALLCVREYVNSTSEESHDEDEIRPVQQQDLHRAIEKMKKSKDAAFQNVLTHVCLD

The other results are listed elsewhere or left out. The data scatter; read single values as rough.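 Many melting curves are irregular; where none melted, Tm was taken as 64 °C.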

Compound in the first test: CCc1cnccc1C(=O)Nc1cc2c(cc1F)NC(=O)CC2
Nature of the test: melting temperature shift (DMSO Tm minus MBE1-treated Tm) in cellular thermal proteome profiling; higher = less thermal stabilization by MBE1 (negative = stabilized by MBE1). Conditions: A375; MBE1 concentration: 100 nM.
As for TSEN2 (UniProt Q8NCE0), the melting temperature shift was determined as 0.324 °C.

Turning to UniProt Q8N960, the melting temperature shift is -0.207 °C.

Regarding USP32 (UniProt Q8NFA0), the melting temperature shift is -0.536 °C.

On to ELP5 (UniProt Q8TE02), for which the melting temperature shift is -3.88 °C.

On to UniProt Q8WV22, for which the melting temperature shift was 0.452 °C.

Take MOSPD2 (UniProt Q8NHP6): the melting temperature shift is 0.421 °C.

Still in this test, the particulars now being: A375; MBE1 concentration: 1 uM.
Consider PAPD5 (UniProt Q8NDF8), for which the melting temperature shift was -0.327 °C.

For the target SMG8 (UniProt Q8ND04), the melting temperature shift was -0.433 °C.

Turning to NANP (UniProt Q8TBE9), the melting temperature shift came to 0.525 °C.

Turning to MTMR14 (UniProt Q8NCE2), the melting temperature shift is -0.134 °C.

Consider DYNC2H1 (UniProt Q8NCM8), for which the melting temperature shift is 0.885 °C.

Consider UniProt Q8N9R8, for which the melting temperature shift is 1.08 °C.

Regarding RDH13 (UniProt Q8NBN7), the melting temperature shift came to 0.22 °C.

Take MCFD2 (UniProt Q8NI22): the melting temperature shift is -0.195 °C.

Regarding PREX1 (UniProt Q8TCU6), the melting temperature shift is -0.569 °C.

Regarding GPX8 (UniProt Q8TED1), the melting temperature shift was -0.11 °C.

As to SCFD2 (UniProt Q8WU76), the melting temperature shift is -1.26 °C.

With MLKL (UniProt Q8NB16), the melting temperature shift was -0.0366 °C.

As to PIK3C3 (UniProt Q8NEB9), the melting temperature shift was 0.798 °C.

Turning to DYNC2LI1 (UniProt Q8TCX1), the melting temperature shift is 0.501 °C.

As for PDDC1 (UniProt Q8NB37), the melting temperature shift was -3.39 °C.

With UniProt Q8NF91, the melting temperature shift was found to be 2.63 °C.

Regarding UniProt Q8TCN5, the melting temperature shift is -0.679 °C.

As to PHF10 (UniProt Q8WUB8), the melting temperature shift was -0.545 °C.

Regarding PNPT1 (UniProt Q8TCS8), the melting temperature shift was -0.0733 °C.

UniProt Q8TCU4: the melting temperature shift came out at 4.1 °C.

Turning to CMAS (UniProt Q8NFW8), the melting temperature shift is -0.0244 °C.

As for ATAD1 (UniProt Q8NBU5), the melting temperature shift was -0.342 °C.

Regarding COLGALT1 (UniProt Q8NBJ5), the melting temperature shift was -0.0335 °C.

As for ATL2 (UniProt Q8NHH9), the melting temperature shift is 0.275 °C.

Regarding DAGLB (UniProt Q8NCG7), the melting temperature shift was found to be 1.22 °C.

As for SUMF2 (UniProt Q8NBJ7), the melting temperature shift was 0.574 °C.
